For assay [1], the target named is BAF170 (mouse (endogenous in telencephalic tissue)) (UniProt Q6PDG5). In words: co-IP; coIP/western blot of E12.5 dorsal telencephalic tissue. In general terms: Immunoblotting shows a protein as a band on a membrane.
Assay [2] has as its target BAF155 (mouse (endogenous in telencephalic tissue)) (UniProt P97496). Described as above.

Protein sequences, listed by entry. Tags and fused reporters are not part of them.
UniProt Q6PDG5: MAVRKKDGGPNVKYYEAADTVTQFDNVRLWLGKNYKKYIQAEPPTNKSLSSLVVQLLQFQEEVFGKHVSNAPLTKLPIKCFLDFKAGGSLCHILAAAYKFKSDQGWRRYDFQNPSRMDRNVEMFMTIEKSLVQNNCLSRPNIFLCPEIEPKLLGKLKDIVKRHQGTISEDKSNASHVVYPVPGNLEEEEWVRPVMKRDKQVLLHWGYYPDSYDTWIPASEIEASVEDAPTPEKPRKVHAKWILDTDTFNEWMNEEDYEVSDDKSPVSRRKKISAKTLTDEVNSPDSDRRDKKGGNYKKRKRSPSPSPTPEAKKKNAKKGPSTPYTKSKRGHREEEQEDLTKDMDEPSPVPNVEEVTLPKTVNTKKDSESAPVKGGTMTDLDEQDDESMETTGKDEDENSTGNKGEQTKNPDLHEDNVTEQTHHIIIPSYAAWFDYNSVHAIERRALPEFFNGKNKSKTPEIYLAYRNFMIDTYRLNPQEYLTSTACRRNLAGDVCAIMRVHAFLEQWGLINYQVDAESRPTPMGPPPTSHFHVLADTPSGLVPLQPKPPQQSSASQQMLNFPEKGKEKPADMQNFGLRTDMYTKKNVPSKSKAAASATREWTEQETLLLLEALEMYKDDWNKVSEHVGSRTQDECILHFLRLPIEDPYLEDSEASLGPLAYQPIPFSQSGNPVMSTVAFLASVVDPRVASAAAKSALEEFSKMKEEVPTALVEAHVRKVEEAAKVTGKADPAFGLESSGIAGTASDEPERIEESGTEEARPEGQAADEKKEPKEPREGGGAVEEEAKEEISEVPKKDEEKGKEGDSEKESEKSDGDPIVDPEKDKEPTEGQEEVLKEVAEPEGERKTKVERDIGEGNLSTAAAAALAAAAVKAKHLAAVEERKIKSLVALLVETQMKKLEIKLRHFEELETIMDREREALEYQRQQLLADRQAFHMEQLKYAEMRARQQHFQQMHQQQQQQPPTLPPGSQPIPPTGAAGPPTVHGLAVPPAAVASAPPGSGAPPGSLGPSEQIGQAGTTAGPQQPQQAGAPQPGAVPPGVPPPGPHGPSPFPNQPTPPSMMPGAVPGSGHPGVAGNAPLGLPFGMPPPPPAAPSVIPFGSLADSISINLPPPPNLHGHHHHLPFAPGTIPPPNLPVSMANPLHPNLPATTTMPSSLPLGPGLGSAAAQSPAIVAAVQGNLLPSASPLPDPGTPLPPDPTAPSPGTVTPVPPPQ
UniProt P97496: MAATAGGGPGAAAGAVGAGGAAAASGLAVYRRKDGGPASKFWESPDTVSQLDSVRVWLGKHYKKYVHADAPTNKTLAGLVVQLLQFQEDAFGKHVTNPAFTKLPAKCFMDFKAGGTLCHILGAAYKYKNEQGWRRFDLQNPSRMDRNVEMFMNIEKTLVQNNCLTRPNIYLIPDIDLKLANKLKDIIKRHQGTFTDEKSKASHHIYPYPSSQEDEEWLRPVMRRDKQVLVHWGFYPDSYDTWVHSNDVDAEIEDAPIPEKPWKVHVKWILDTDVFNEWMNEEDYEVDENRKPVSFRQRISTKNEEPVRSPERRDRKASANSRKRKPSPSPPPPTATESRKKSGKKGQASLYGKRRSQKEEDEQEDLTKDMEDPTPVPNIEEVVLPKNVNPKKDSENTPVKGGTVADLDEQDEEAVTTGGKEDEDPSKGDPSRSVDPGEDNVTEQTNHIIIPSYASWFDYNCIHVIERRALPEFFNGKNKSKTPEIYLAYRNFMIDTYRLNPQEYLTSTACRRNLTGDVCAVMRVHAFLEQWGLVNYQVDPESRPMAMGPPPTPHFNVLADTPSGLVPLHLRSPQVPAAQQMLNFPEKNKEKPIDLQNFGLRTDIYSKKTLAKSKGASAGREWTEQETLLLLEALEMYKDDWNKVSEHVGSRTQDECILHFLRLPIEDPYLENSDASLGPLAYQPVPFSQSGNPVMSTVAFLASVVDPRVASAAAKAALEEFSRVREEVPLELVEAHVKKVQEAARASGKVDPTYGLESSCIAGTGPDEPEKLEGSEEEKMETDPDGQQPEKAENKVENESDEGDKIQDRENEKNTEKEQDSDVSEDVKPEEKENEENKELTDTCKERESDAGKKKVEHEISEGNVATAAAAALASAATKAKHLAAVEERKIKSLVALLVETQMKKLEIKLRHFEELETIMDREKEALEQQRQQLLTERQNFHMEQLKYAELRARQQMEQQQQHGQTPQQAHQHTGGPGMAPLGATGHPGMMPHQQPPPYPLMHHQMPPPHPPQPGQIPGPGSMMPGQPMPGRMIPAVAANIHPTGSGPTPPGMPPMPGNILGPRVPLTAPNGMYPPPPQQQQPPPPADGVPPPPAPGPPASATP

This is an account of results in paper PMC9573979.

Results are given in words; binding and its absence hold for the method and conditions named. In cells and extracts the contact can be indirect. Some results given as binding are weak or reduced against the parent protein; the word gives no strength.

B1: LHX2 (protein, UniProt Q9Z0S2 1-406)
chain: MLFHSLSGPEVHGVIDEMDRRAKSEAPAISSAIDRGDTETTMPSISSDRAALCAGCGGKISDRYYLLAVDKQWHMRCLKCCECKLNLESELTCFSKDGSIYCKEDYYRRFSVQRCARCHLGISASEMVMRARDLVYHLNCFTCTTCNKMLTTGDHFGMKDSLVYCRLHFEALLQGEYPAHFNHADVAAAAAAAAAAKSAGLGSAGANPLGLPYYNGVGTVQKGRPRKRKSPGPGADLAAYNAALSCNENDAEHLDRDQPYPSSQKTKRMRTSFKHHQLRTMKSYFAINHNPDAKDLKQLAQKTGLTKRVLQVWFQNARAKFRRNLLRQENTGVDKTSDATLQTGTPSGPASELSNASLSPSSTPTTLTDLTSPTLPTVTSVLTSVPGNLEGHEPHSPSQTTLTNLF
As to B1, the binding entry in assay [1] and in assay [2] was “binds” in each case.
